Results are given in words; binding and its absence hold for the method and conditions named. Some results given as binding are weak or reduced against the parent protein; the word gives no strength.
Target: N-hCD73-his (human) (UniProt P21589)
Test: SPR

Protein sequences, listed by entry. Tags and fused reporters are not part of them. Lines headed by an entry give the natural chain unless they say otherwise; changes in a name come on top.
UniProt P21589: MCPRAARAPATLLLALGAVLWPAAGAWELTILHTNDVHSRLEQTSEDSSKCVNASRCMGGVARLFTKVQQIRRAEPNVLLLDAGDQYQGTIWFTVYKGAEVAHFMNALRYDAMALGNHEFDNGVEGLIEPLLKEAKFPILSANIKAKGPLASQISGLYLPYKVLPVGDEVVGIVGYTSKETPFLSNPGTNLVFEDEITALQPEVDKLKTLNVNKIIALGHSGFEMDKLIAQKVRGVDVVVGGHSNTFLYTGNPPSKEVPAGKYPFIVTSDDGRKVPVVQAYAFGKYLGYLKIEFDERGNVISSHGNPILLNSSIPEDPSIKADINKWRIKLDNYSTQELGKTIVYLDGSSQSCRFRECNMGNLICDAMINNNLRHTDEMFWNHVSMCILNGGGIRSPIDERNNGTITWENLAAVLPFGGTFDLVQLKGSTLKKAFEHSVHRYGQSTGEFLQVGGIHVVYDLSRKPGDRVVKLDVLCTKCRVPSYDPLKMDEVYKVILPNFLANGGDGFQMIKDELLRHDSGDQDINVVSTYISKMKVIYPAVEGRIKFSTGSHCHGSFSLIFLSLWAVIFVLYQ

B1: 5F8 (antibody, human IgG1, kappa, V domains shown)
VH: EVQLVESGGGLVQPGGSLRLSCAASGFTFSSYWMHWVRQAPGKGLVWVSRIISDGSSTGYADSVKGRFTISRDNAKNTLYLQMNSLRAEDTAVYYCAREFSSGWYFDYWGQGTLVTVSS
VL: AIQLTQSPSSLSASVGDRVTITCRASQGISSALAWYQQKPGKAPKLLIYDASSLESGVPSRFSGSGSGTDFTLTISSLQPEDFATYYCQQFSSYPRTFGQGTKVEIKR
  binding: binds
